Results deposited as PubChem BioAssay AID1053208 (Peter MacCallum Cancer Centre, 2014).
Here is one part, drawn at random, of about 17,000 reagents. 788 of them (4.7%) were called active. 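Calls rest on z-score classes alone; an extra cut-off of viability at most 70% of control was not applied to them.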 A number with no mark means an inactive call. Reagents against one gene are numbered here. Not all columns of the deposit are shown.

- Test: 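Synthetic lethal interactions between gene loss and doxorubicin in osteosarcoma cells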 (primary screen)
- Cells: mouse osteosarcoma cells, early-passage culture from an engineered mouse model of fibroblastic bone tumour
- Knock-down reagent: siRNA pool against mouse genes, 40 nM
- Time to read-out: about 120 h (48 h before drug, then 72 h with drug)
- Conditions: doxorubicin 100 nM for 72 h, roughly 30-40% inhibitory dose
- Measurement: 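Luminescent ATP signal taken as viability with or without 100 nM doxorubicin for 72 h; mean of two wells set against non-targeting siRNA and turned into robust z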
- Direction: viability z-score with doxorubicin: higher = more viable cells under doxorubicin; viability z-score without drug: higher = more viable cells with knock-down alone
- Active means: 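a pool counts as active when its viability z-score with doxorubicin is -2 or below and its z-score without drug lies between -2 and 2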

| Target gene | reagent | combined z-score class | viability z-score with doxorubicin | viability z-score without drug |
| --- | --- | --- | --- | --- |
| Smap2 | 1 | no change with or without drug | 0.11 | 1.18 |
| Bmpr1b | 1 | no change with or without drug | 1.12 | -0.84 |
| Nbn | 1 | no change with or without drug | 0.9 | -0.84 |
| Hmg20a | 1 | no change with or without drug | 0.79 | -0.67 |
| Atp5mc2 | 1 | no change with or without drug | -1.12 | -0.51 |
| Agtr1b | 1 | no change with or without drug | 0 | -1.18 |
| Gsta4 | 1 | no change with or without drug | 0.56 | 1.52 |
| Pmepa1 | 1 | no change with or without drug | 0.22 | 1.52 |
| Nxpe4 | 1 | no change with or without drug | -0.22 | -0.17 |
| Naa10 | 1 | no change with or without drug | -0.79 | -0.84 |
| Or4c10 | 1 | no change with or without drug | 0 | -0.67 |
| Or8b54 | 1 | no change with or without drug | -1.8 | -1.69 |
| Vmn1r63 | 1 | high cell count without drug only | 1.8 | 3.37 |
| Ift74 | 1 | no change with or without drug | -0.9 | -0.84 |
| Slc17a3 | 1 | no change with or without drug | 1.12 | 0 |
| Epha10 | 1 | no change with or without drug | -0.45 | 0.17 |
| Plk2 | 1 | low cell count with doxorubicin only (active) | -3.93 | -1.52 |
| Sfmbt1 | 1 | no change with or without drug | -0.56 | -1.01 |
| Sfmbt1 | 2 | high cell count without drug only | 0.45 | 3.71 |
| Rab9b | 1 | no change with or without drug | -0.34 | 0 |
| Pibf1 | 1 | no change with or without drug | 1.8 | 1.18 |
| Jakmip1 | 1 | low cell count without drug only | -1.35 | -2.36 |
| Otof | 1 | no change with or without drug | 1.35 | 1.18 |
| Pcdhgb4 | 1 | no change with or without drug | -0.9 | 0.34 |
| Bri3 | 1 | no change with or without drug | -0.22 | 0.17 |
| Slc67a2 | 1 | high cell count without drug only | 0.9 | 3.71 |
| Ttll6 | 1 | no change with or without drug | 0.22 | 0.17 |
| Gad1 | 1 | no change with or without drug | -0.67 | 0.34 |
| Tshb | 1 | no change with or without drug | -0.22 | 0.34 |
| Lrrc26 | 1 | no change with or without drug | -0.56 | 0.34 |
| Tulp1 | 1 | no change with or without drug | 0.34 | 0.84 |
| Fem1a | 1 | no change with or without drug | -0.9 | 0 |
| Chsy3 | 1 | no change with or without drug | 1.01 | 0.17 |
| E2f6 | 1 | no change with or without drug | 0.22 | -0.51 |
| Mrpl21 | 1 | no change with or without drug | 0.22 | -1.85 |
| Boll | 1 | no change with or without drug | 0 | -0.84 |
| Echdc1 | 1 | no change with or without drug | 0.56 | 1.85 |
| Repin1 | 1 | no change with or without drug | -0.34 | 0.34 |
| Stom | 1 | no change with or without drug | 0 | 0.17 |
| Dcaf8l | 1 | low cell count with doxorubicin only (active) | -2.81 | -1.18 |
| Tbx4 | 1 | no change with or without drug | -0.45 | 0.34 |
| Cstf2 | 1 | no change with or without drug | 0.45 | 0.17 |
| Gpbp1 | 1 | low cell count with doxorubicin only (active) | -2.36 | 0.84 |
| Sp6 | 1 | no change with or without drug | -1.12 | -1.01 |
| Abca8b | 1 | no change with or without drug | -0.22 | -0.51 |
| Abcc6 | 1 | no change with or without drug | -1.24 | -0.51 |
| Cyp2d26 | 1 | no change with or without drug | 0.34 | 0.67 |
| Il10ra | 1 | no change with or without drug | -0.34 | 0.34 |
| Ddx3x | 1 | no change with or without drug | 0.45 | 0.51 |
| Itih2 | 1 | no change with or without drug | -1.57 | -1.01 |
| Unc5cl | 1 | low cell count with doxorubicin only (active) | -2.02 | -1.52 |
| Pcolce | 1 | high cell count without drug only | 0.9 | 2.36 |
| Psd | 1 | no change with or without drug | 1.35 | -0.67 |
| Zc3h15 | 1 | no change with or without drug | 0.22 | 1.18 |
| Scn10a | 1 | no change with or without drug | -0.22 | -0.84 |
| Krt13 | 1 | no change with or without drug | -0.79 | -0.17 |
| Nptx2 | 1 | no change with or without drug | -0.34 | -0.17 |
| Otub2 | 1 | no change with or without drug | 0 | 0.51 |
| Rpl13a | 1 | low cell count with and without drug | -4.05 | -3.2 |
| 5730405M06RIK | 1 | low cell count with doxorubicin only (active) | -2.25 | 0.84 |
| Ass1 | 1 | no change with or without drug | -0.22 | -0.67 |
| Ttc3 | 1 | no change with or without drug | -1.35 | 0.34 |
| Tbr1 | 1 | no change with or without drug | -0.45 | 1.69 |

Just “combined z-score class”, for 4 of the entries above:
Ift74 = no change with or without drug
Slc17a3 = no change with or without drug
Epha10 = no change with or without drug
Plk2 = low cell count with doxorubicin only (active)
